Experimental data taken from publication doi:10.1101/2025.01.15.633301.
These are yes or no findings as the source states them, for the method shown. In cells and extracts the contact can be indirect. Some binding calls cover weakened binding; strength is not graded here. Sequences can lack the tags named with a protein.

Target: myc-progerin (UniProt P02545)
Assay: co-IP

B1: HA-SUN1 (protein, UniProt Q9D666 1-913)
chain: MDFSRLHTYTPPQCVPENTGYTYALSSSYSSDALDFETEHKLEPVFDSPRMSRRSLRLVTTASYSSGDSQAIDSHISTSRATPAKGRETRTVKQRRSASKPAFSINHLSGKGLSSSTSHDSSCSLRSATVLRHPVLDESLIREQTKVDHFWGLDDDGDLKGGNKAATQGNGELAAEVASSNGYTCRDCRMLSARTDALTAHSAIHGTTSRVYSRDRTLKPRGVSFYLDRTLWLAKSTSSSFASFIVQLFQVVLMKLNFETYKLKGYESRAYESQSYETKSHESEAHLGHCGRMTAGELSRVDGESLCDDCKGKKHLEIHTATHSQLPQPHRVAGAMGRLCIYTGDLLVQALRRTRAAGWSVAEAVWSVLWLAVSAPGKAASGTFWWLGSGWYQFVTLISWLNVFLLTRCLRNICKVFVLLLPLLLLLGAGVSLWGQGNFFSLLPVLNWTAMQPTQRVDDSKGMHRPGPLPPSPPPKVDHKASQWPQESDMGQKVASLSAQCHNHDERLAELTVLLQKLQIRVDQVDDGREGLSLWVKNVVGQHLQEMGTIEPPDAKTDFMTFHHDHEVRLSNLEDVLRKLTEKSEAIQKELEETKLKAGSRDEEQPLLDRVQHLELELNLLKSQLSDWQHLKTSCEQAGARIQETVQLMFSEDQQGGSLEWLLEKLSSRFVSKDELQVLLHDLELKLLQNITHHITVTGQAPTSEAIVSAVNQAGISGITEAQAHIIVNNALKLYSQDKTGMVDFALESGGGSILSTRCSETYETKTALLSLFGVPLWYFSQSPRVVIQPDIYPGNCWAFKGSQGYLVVRLSMKIYPTTFTMEHIPKTLSPTGNISSAPKDFAVYGLETEYQEEGQPLGRFTYDQEGDSLQMFHTLERPDQAFQIVELRVLSNWGHPEYTCLYRFRVHGEPIQ
In the case of B1, the binding is reported as “binds”.
